This assay in a line: qHTS Assay for Lipid Storage Modulators in Drosophila S3 Cells.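 As to cell number change: cells counted by Cell Tracker Red CMTPX staining in the red channel.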 The following applies: BODIPY lipid droplet fluorescence, 18-24 h; for cell number change: measured here: cell count max response, cells fed with added oleic acid. Put shortly:
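Laser-scanning cytometry quantifies lipid droplet accumulation (500–530 nm total intensity; droplet/cell object ratio) in oleic acid-fed (400 uM added) Drosophila S3 cells treated with a concentration series. 20 uM Triacsin C defined 100% inhibition.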
Background: In qHTS, concentration-response curves come from the screen itself.

[1] abbreviates: measured here: cell number channel AC50, cells fed with added oleic acid.
The mark [2] stands for this setting: measured here: lipid fluorescence (Fed channel) AC50, cells fed with added oleic acid.

Structures are written as SMILES. The list shows a part of the results. These are further read-outs of the screen, such as a control signal, another cell line or another target. No call is given for them. Most of these compounds were active or inconclusive in the main read-out, so they are no random draw. The note in brackets gives the kind of curve behind each potency; many fits are weak.

Among the data in PubChem BioAssay AID2685 (National Center for Advancing Translational Sciences (NCATS), 2010) are cell number change and AC50 values, retold here.

Broadly, the AC50 is the concentration at which the activity in the assay is half-maximal. On to `Cc1cnc(SCCc2ccncc2)nc1C`, for which the cell number change was determined as 106%. Also, the AC50 under setting [1] is 11.6 µM [rising, partial curve]. Moreover, the AC50 under setting [2] is 13 µM [rising, partial curve].

For the compound `C=CCN(c1nc(C)c(Br)c(OC)n1)S(=O)(=O)c1ccc(C)cc1`, the cell number change was -0.263%. In addition, under setting [2], the AC50 is 29.1 µM [rising, single point].

Regarding `Cc1cccc(C)c1OCC(=O)Nn1c(COc2ccccc2)nc2ccccc2c1=O`, the cell number change is 45.4%. Further, the AC50 under setting [1] was 9.2 µM [rising, partial curve]. Moreover, under setting [2], the concentration at half-maximal activity (AC50) was 20.6 µM [rising, partial curve].

As to `O=C(Nc1ccncc1)c1cn(-c2ccccc2)nc1-c1cccs1`, the concentration at half-maximal activity (AC50) reads like this: under setting [1], 1.84 µM [rising, partial curve]; under setting [2], 2.06 µM [rising, partial curve].

With `NC(=O)c1ccccc1NC(=O)CSc1cn[nH]n1`, the cell number change came to 12.6%. The AC50 under setting [2] was 6.51 µM [rising, single point].

Take `CC1CCN(C(=O)c2nc[nH]c2C(=O)N2CCC(C)CC2)CC1`: the cell number change came to 6.02%. Besides, the AC50 under setting [2] is 0.0206 µM [rising, full curve, poor fit].

On to `CCOc1ccccc1NC(=O)NCCc1c[nH]c2ccccc12`, for which the cell number change is -12.7%. Besides, the concentration at half-maximal activity (AC50) under setting [2] was 16.4 µM [falling, single point].

As to `CCN(CC(=O)Nc1ccccc1OC)CC(=O)Nc1sccc1C#N`, the cell number change worked out at 66.1%. In addition, the AC50 under setting [1] is 0.411 µM [rising, partial curve, poor fit]. The AC50 under setting [2] is 29.1 µM [rising, single point].

Regarding `O=C(Nc1ccc(CSc2ccccc2)cc1)c1ccccc1`, the cell number change is -0.494%. Under setting [2], the concentration at half-maximal activity (AC50) is 0.146 µM [falling, full curve, poor fit].

Consider `COc1ccc(CC(=O)NNC(=O)c2ccoc2C)cc1OC`, for which the cell number change was -2.3%. Further, the half-maximal activity concentration (AC50) under setting [2] was 5.8 µM [falling, single point].

`CCOC(=O)N1CCN(S(=O)(=O)c2c(C)cc(C)cc2C)CC1`: the cell number change came out at 4.41%. The half-maximal activity concentration (AC50) under setting [2] was 18.4 µM [falling, single point].

On to `CCOc1ccc(NC(=O)c2ccc3[nH]c(=O)c(=O)[nH]c3c2)cc1`, for which the cell number change is -7.63%.

Regarding `Clc1ccc(Cl)c(-c2ccc(/C=N/c3ncn[nH]3)o2)c1`, the cell number change is -4.45%. Besides, under setting [2], the AC50 was 0.13 µM [falling, full curve, poor fit].

As to `CC(=O)c1cccc(NC(=O)N(c2ccccc2)c2ccccc2)c1`, the cell number change turned out to be 10.9%. In addition, the AC50 under setting [2] is 1.3 µM [falling, full curve].

In the case of `O=C(NCc1ccco1)c1ccc(CS(=O)(=O)Cc2ccc(Cl)cc2)o1`, the cell number change was 14.3%. Under setting [2], the AC50 is 5.17 µM [rising, partial curve].

For the compound `CCC1C/C(=C\c2cccnc2)C(=O)/C(=C/c2cccnc2)C1` (centres undefined), the cell number change is -6.35%. Further, the concentration at half-maximal activity (AC50) under setting [2] is 0.461 µM [rising, partial curve].
